Experimental data from paper PMC8749076.
Results are given in words; binding and its absence hold for the method and conditions named. Some binding calls cover weakened binding; strength is not graded here. Sequences can lack the tags named with a protein.

Target: T1, His-FtsB (Escherichia coli) (UniProt P0A6S5)
T1 sequence: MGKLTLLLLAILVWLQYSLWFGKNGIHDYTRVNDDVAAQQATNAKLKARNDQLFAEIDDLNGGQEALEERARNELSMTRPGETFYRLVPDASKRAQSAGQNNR
Test: co-purification on Ni-NTA; His-FtsB and Strep-FtsL_(35–121) co-expressed in E. coli BL21(DE3); complex extracted from membranes with 18 mM n-decyl-β-D-maltopyranoside; batch binding to Ni-NTA agarose 2 h at 4 °C; wash 50 mM imidazole, elution 300 mM imidazole, 300 mM NaCl, 25 mM Hepes pH 8.0, 510 μM DDM

B1: Strep-FtsL_(35–121)–C41A–C45A (domain or fragment, UniProt P0AEN4 35-121)
chain: FGKLPLALFIAIILTAVTVVTTAHHTRLLTAQREQLVLERDALDIEWRNLILEENALGDHSRVERIATEKLQMQHVDPSQENIVVQK
- binding: binds
